{
  "source": "patent US20250049953A1",
  "about": "“TREATMENT AND METHOD FOR INHIBITING LATE NA CURRENT” (THE TRUSTEES OF COLUMBIA UNIVERSITY IN THE CITY OF NEW YORK, priority 2022, published 2025)",
  "tested_on": "aMVM from non-transgenic mice",
  "test": "Multichannel recordings of INa,L in cultured aMVM from non-transgenic mice",
  "format": "cell-based, mouse",
  "conditions": "5 μM Forskolin, at baseline (scrambled shRNA)",
  "from_the_text": "As such, we sought to determine whether “protective” FHF variants may inhibit phosphorylation-dependent INa,L. To maximally upregulate INa,L, we co-expressed wild-type NaV1.5 with either (1) the catalytic Cα subunit of protein kinase A (PKA) or (2) a constitutively-active Ca^2+/CaM dependent kinase II (CaMKIIT286D) mutant in HEK293 cells. This maneuver likely triggers runaway phosphorylation of NaV1.5 and thereby furnishes a baseline to discern any potential FHF-dependent change. As expected, we observed an ˜5 fold increase in INa,L in the presence of the PKA Cα subunit (FIGS. 3D and 3E), and a 3-fold increase with CaMKIIT286D (FIGS. 3E and 11B). […] Encouraged by these findings, we dissected the functional role of this modulation in native cardiomyocytes (FIGS. 3F and 3G).\nMultichannel records were obtained in the on-cell configuration with either HEK293 cells or in aMVM as in our previous study. The pipette contained (in mM): 140 NaCl; 10 HEPES; 0.5 CaCl2; at 300 mOsm, adjusted with tetraethylammonium methanesulfonate; and pH 7.4 adjusted with tetraethylammonium hydroxide. […]\nMice ventricular myocytes were isolated by enzymatic digestion using a Langendorff perfusion apparatus as previously described. […] The efficacy of viral transduction was assessed 24-48 hours post infection.",
  "note": "At least one structure is not confirmed: it was looked up by name or label, or the drawing left a doubt.",
  "data": [
    {"smiles": "C=C[C@@]1(C)CC(=O)[C@]2(O)[C@@]3(C)[C@@H](O)CCC(C)(C)[C@@H]3[C@H](O)[C@H](OC(C)=O)[C@@]2(C)O1", "note": "[Forskolin]", "values": [
      {"measurement": "change in INa,L", "result": "did not appreciably change"}
    ]}
  ]
}
